Data taken from ChEMBL document CHEMBL3988442, “University of Dundee, Small-Polar-MMV Screening Library” (2021).

Chains of the proteins cited; added tags and fusions are not shown.
UniProt E9BF75, entry or part of it: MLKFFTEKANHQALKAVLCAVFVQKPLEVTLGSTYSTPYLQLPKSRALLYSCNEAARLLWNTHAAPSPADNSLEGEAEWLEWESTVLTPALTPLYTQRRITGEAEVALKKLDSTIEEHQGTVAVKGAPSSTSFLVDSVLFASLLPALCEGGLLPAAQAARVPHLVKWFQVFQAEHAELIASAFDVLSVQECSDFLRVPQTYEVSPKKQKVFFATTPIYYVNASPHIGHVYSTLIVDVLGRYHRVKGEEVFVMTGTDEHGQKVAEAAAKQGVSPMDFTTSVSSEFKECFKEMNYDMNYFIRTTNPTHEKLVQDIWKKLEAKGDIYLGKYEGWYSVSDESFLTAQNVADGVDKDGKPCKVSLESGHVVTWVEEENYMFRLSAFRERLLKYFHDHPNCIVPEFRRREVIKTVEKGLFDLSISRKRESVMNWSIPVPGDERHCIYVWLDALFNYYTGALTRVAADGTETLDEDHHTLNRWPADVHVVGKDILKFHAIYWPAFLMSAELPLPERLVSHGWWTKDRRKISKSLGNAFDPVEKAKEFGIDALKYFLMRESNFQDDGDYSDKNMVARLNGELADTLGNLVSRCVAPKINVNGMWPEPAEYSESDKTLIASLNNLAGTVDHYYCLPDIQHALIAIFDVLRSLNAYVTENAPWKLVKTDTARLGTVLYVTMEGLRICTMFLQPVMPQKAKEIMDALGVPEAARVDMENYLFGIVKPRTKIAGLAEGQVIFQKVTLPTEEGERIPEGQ

A: 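Assay on Mycobacterium tuberculosis, filed only as a heat shock assay from Cornell; the read-out is not stated. The concentration is filed as 10 mM, unlikely as a test dose, so the dose is not known. The record gives no direction; compounds that gave an IC50 in retests scored well above the rest, so higher reads as stronger inhibition. Of about 69,000 compounds tested this way, about 930 (1.4%) reached 50% or more in at least one test.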
B: 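Whole-cell assay for inhibitors of Mycobacterium tuberculosis growth, labelled Cornell in the record; the read-out is not stated. The concentration is filed as 10 mM, unlikely as a test dose, so the dose is not known. The record gives no direction; compounds strong in two other growth screens of this library score well above the rest, so higher reads as stronger inhibition. Size under these conditions: about 53,000 compounds, about 900 of them at 50% or above in at least one test.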
C: 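Methionyl-tRNA synthetase (putative), Leishmania donovani (UniProt E9BF75). Primary screen of methionyl-tRNA synthetase; the read-out is not stated. The test concentration is not given. The values are filed as inhibition. About 68,000 compounds were tested under these conditions; 0.035% (about 24) showed 50% or more at least once.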

All values are in %.
The record does not define 0% and 100%; most values in the screen are far below 50% and negative numbers occur (in some assays of this library far below -100).
The compounds are a random part of those screened.
A dash means the value is not listed here; it may have been measured.

structure,A,B,C
O=C(O)C(F)(F)F.[H][C@@]12CCN(Cc3ccoc3)C[C@]1([H])O[C@H](C(=O)NC1CC1)C2,49.9,-22.03,-
Cc1cc(C)c(CNC(=O)CC2CCCO2)c(=O)[nH]1 (stereo not drawn),-5.865,-,14.21
CC1CN(C(=O)C2(c3cccc(F)c3)CCOCC2)CCO1 (stereo not drawn),-24.55,-,-
O=C(c1cc2c(s1)CCC2)N1CCCC1c1noc(C2CC2)n1 (stereo not drawn),2.091,-,13.41
CN(C)c1ccc(CNC(=O)c2ccc(Cl)cc2F)cc1,35.09,13.64,12.68
COCCN1CCC2(CCN(c3ncccn3)CC2)C1=O.O=C(O)C(F)(F)F,-21.42,-16.91,-
Cc1nc(C(C)(C)NC(=O)Nc2ccc(C#N)cc2)no1,-15.18,14.16,12.5
CO[C@H]1CCN(S(=O)(=O)c2cn(C)cn2)[C@H]1Cc1cccnc1,-,-,11.3
COc1ncc(NCc2ccc(Cl)c(Cl)c2)cc1C(N)=O,11.58,22.57,8.101
CCOCC1(CNCc2cc(O)c3cc(C)ccc3n2)CC1,7.936,5.873,19.76
CCc1noc(C)c1C(=O)Nc1cnn(CC(=O)NC2CCCC2)c1,-13.55,-17.98,15.6
Cc1cc(CC2COc3ccccc3C2)cnc1N (stereo not drawn),7.326,26.01,18.99
O=C(c1cccs1)N1CC[C@H](O)[C@@H]1Cc1ccccc1,-24.34,8.639,3.704
Cc1csc(CN2CCC3(CC2)COC(COc2ccccn2)C3)n1 (stereo not drawn),-9.731,12.83,14.66
COCC1CN(Cc2cc(C)on2)Cc2cn(CC3CCCC3)nc21.O=C(O)C(F)(F)F.O=C(O)C(F)(F)F (stereo not drawn),-30.37,19.04,-
CN(Cc1ncc[nH]1)C(=O)C(C)(C)NC(=O)c1cccs1,12.69,13.58,9.483
CC/N=c1/c(NC(=O)C2CC2)c(O)oc2ccccc12,-5.204,-32.14,8.685
CSC1(CNC(=O)N(C)Cc2sccc2C)CCOCC1,-14.56,-,5.575
COCCN(CCOC)C(=O)c1ccc(Cn2nc(C)cc2C)cc1,-4.103,-49.36,10.56
[H][C@@]12CN(Cc3ccsc3)CCO[C@]1([H])CN(Cc1cc(C)on1)C2,-14.04,-7.095,-
COCC1c2c(cnn2C)CCN1Cc1cccc(C)c1 (stereo not drawn),-,-,8.934
CN1CCOC[C@H]1c1nc(-c2cccnc2)c[nH]1,-44.26,-,13.74
COc1ccc(C)cc1NC(=O)Nc1cnc(N2CCN(C)CC2)nc1,-5.772,16.29,14.71
Cc1ccccc1OCC(O)CN1CCC(c2ccn[nH]2)CC1 (stereo not drawn),-3.674,-,13.8
COc1ccc(C)cc1CC(=O)Nc1cc(C)n[nH]1,-37.12,14.82,14.38
Cc1ccn(-c2ccccc2NCc2ncc[nH]2)n1,7.642,13.74,10.34
CCN1Cc2nc(OC)c(CNC(=O)CCC3CCCC3)cc2C1=O,11.58,4.598,18.62
CCN1CCCN(c2ccc(-n3ccc(C)n3)nn2)CC1,9.684,10.29,20.38
Cc1cc(C[S+]([O-])CC(=O)NCC(C)C)no1 (stereo not drawn),16.69,10.87,19.03
CS(=O)(=O)c1ccc(CN2CCCCC2c2cccc(F)c2)cc1 (stereo not drawn),6.059,7.727,17.36
Cc1cn(CC(=O)NC2CCC3(CC2)OCCO3)c2ccccc12,1.992,-25.57,19.85
CCN(CCC(=O)OC)S(=O)(=O)c1cnc2c(c1)c(C)nn2C,-0.7327,-,12.03
CCS(=O)(=O)CC(=O)N1CCCC1c1noc(C2CC2)n1 (stereo not drawn),-13.18,15.14,8.798
Cc1ccc(CN2CCCn3nnc(COCC4CC4)c3C2)s1,-,-,12.89
O=C(NCCc1c[nH]c2ccccc12)C1(n2cnnn2)CCCCC1,102.3,25.7,11.66
c1cnnc(N[C@@H]2CC[C@@H]3CN(Cc4c[nH]c5ccccc45)C[C@@H]32)c1,-,-,25.47
O=c1[nH]c2ncccc2n1C1CCNCC1,-,-,18.33
COCc1ncn2c1CN(C(=O)c1ccco1)CC2,-21.38,-,10.66
CCc1noc(C(C)N2CCN(CC(C)C)CC2)n1 (stereo not drawn),-32.38,-14.43,6.647
CC(C)N1CCC(c2ccnc3c(C(=O)N4CCCC4)ncn23)CC1,-1.902,30.49,19.57
COc1ccccc1OCC(=O)N1C[C@@H]2CN(C)CCO[C@@H]2C1,-,-,6.884
CC(=O)CN1CCC2(CC1)c1ccccc1[C@@H](N1CCSCC1)[C@@H]2O,-26.76,23.43,-3.333
O=C(c1cccc(NCc2cccc(F)c2)c1)N1CCC(O)CC1,-16.09,1.828,11.63
COc1ccc(CN2CCOCC3(CCN(C4CCOCC4)C3)C2)cc1.O=C(O)C(F)(F)F.O=C(O)C(F)(F)F (stereo not drawn),-25.17,1.114,-
Cc1cc(NC(C)C(=O)NCc2ccccc2)nc(-c2ccncc2)n1 (stereo not drawn),-27.58,6.783,17.47
O=S(=O)(c1ccc(N2CCCCC2)c2nonc12)N1CCCCC1,16.21,-,3.315
O=C(c1ccccn1)N1C[C@@H]2CC[C@H](C1)N(C(=O)CCN1CCCC1)C2,-,-,2.007
Cc1cc(N(C)C)nc(C2CCCNC2)n1 (stereo not drawn),-,-,14.56
CC(C)Cc1cc(C(=O)NCCn2nc3ccccn3c2=O)[nH]n1,-16.37,6.434,-27.68
O=C(O)C(F)(F)F.O=C(O)C(F)(F)F.O=C(O)C(F)(F)F.c1ccc(CO[C@@H]2CO[C@@]3(CCN(Cc4ccccn4)C3)C2)nc1,-9.628,-,-
CN(CC1(C)COC1)C(=O)c1cc(-c2cnn(C)c2)nc2ccccc12,-19.67,-25.53,11.21
CCc1cccc(N2CCC(NC(=O)c3cc[nH]n3)CC2)c1,-4.22,-,9.722
[H][C@@]12COC[C@]1(COc1cccnc1)CN(C(=O)Cc1ccsc1)C2,13.83,-0.685,-
Cc1ccccc1OCCN(C)C(=O)NC(C)c1nncn1C (stereo not drawn),-22.28,-35.68,20.52
Cc1ocnc1C(=O)N(C)[C@@H]1CC[C@@H](n2ccnc2C)[C@@H]1O,-24.41,42.58,14.78
COc1ccccc1/C=C/CNCC1CCc2nncn2C1 (stereo not drawn),11.2,5.703,-9.382
COC(=O)C1CN(CC(=O)Nc2cccc(OC)c2)c2ccccc21 (stereo not drawn),18.5,-1.012,-1.928
O=C(C[C@H]1[C@H]2CN(C(=O)Cc3ccccn3)C[C@@H]12)Nc1cccnc1,-,-,13.14
Cc1c(C)n(CC(O)CN2CCC(C)CC2)c2c(Cl)cccc12 (stereo not drawn),10.76,1.616,23.6
O=C(N1CCOCC1)[C@@]12CCO[C@@H]1CCN(CC1CCCC1)C2,-,-,6.628
Cc1cc(CNC(=O)N2CCN(c3nc(C)c(C)s3)CC2)no1,-14.14,10.99,11.43
CC(C)c1ccccc1OCCNC(=O)N1CCC(CC(N)=O)CC1,-18.81,5.171,17.6
CCCn1cc(C(=O)NCCCC(N)=O)c2ccccc21,-25.16,-,12.33
CC(=O)N1CCC2(CC1)CN(C(=O)c1cccnc1)c1ccc(F)cc12.O=C(O)C(F)(F)F,33.89,7.699,-
CCc1nc2ccccc2c(=O)n1CC1(O)CCN(C(=O)COC)CC1.Cl,-11.44,10.94,-
NC(=O)CSCC(=O)N1CCc2cc(Cl)cc(Cl)c2C1,10.37,5.388,9.449
[H][C@]12CCCC[C@]1([H])N(C(=O)N1CCOCC1)CC[C@@]2(O)c1ccccc1,11.41,10.81,-
Cc1cc(C)n(CC(C)CNC(=O)NCc2c(C)cc(C)[nH]c2=O)n1 (stereo not drawn),-13.14,-,15.32
Cc1ccc(C(O)CNCCn2cccn2)cc1C (stereo not drawn),-7.112,-,5.594
CN1CC(=O)N(c2ccccc2)CC12CCN(Cc1nccn1C)C2 (stereo not drawn),-,-,4.255